Our source for the log2 fold change values is the supplement of paper PMC10849652.

Amino acid sequences for entries named in this document (tags omitted). A change or cut given only in a name is not applied to a line headed by its entry.
UniProt Q9UPW6: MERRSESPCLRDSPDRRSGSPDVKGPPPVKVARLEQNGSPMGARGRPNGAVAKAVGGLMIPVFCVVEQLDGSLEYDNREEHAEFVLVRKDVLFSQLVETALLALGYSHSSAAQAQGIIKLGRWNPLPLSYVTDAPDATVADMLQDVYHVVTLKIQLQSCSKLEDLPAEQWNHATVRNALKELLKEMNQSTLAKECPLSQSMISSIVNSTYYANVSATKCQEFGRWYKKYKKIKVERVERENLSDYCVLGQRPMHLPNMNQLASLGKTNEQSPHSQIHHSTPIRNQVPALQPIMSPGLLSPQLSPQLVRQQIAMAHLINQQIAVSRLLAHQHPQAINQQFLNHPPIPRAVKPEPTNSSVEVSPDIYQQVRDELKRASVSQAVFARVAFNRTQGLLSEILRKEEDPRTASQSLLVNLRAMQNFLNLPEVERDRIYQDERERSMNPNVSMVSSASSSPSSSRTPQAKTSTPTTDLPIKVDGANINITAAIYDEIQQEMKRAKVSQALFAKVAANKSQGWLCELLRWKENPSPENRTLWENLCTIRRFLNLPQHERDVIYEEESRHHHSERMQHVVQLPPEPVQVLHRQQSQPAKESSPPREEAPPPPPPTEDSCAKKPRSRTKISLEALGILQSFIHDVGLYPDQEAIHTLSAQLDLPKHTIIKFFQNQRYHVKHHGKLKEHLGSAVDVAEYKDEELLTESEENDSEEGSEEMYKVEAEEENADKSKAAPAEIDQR
UniProt O14521: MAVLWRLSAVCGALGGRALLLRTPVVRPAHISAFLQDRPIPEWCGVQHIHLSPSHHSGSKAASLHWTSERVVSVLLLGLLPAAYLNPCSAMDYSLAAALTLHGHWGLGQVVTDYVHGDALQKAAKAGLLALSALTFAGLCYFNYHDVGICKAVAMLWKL
UniProt O95969: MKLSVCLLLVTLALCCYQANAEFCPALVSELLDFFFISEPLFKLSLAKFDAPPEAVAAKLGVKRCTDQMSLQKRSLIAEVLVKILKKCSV
UniProt Q9H4L4: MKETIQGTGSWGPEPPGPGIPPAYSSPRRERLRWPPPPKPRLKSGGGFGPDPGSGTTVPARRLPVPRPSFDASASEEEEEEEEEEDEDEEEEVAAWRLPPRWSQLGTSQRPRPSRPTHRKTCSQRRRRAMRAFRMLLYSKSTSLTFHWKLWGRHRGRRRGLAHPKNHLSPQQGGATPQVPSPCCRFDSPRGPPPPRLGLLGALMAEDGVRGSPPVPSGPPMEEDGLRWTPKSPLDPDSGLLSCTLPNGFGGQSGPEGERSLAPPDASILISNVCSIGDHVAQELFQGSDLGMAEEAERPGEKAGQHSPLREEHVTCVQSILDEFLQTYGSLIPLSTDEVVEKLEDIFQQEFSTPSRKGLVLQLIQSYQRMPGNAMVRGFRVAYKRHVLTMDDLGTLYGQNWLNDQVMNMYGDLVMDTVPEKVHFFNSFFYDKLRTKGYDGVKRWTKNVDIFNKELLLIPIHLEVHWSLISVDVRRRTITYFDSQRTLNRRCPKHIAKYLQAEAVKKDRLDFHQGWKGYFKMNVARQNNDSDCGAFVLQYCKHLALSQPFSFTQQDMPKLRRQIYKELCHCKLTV
UniProt Q8N9R8: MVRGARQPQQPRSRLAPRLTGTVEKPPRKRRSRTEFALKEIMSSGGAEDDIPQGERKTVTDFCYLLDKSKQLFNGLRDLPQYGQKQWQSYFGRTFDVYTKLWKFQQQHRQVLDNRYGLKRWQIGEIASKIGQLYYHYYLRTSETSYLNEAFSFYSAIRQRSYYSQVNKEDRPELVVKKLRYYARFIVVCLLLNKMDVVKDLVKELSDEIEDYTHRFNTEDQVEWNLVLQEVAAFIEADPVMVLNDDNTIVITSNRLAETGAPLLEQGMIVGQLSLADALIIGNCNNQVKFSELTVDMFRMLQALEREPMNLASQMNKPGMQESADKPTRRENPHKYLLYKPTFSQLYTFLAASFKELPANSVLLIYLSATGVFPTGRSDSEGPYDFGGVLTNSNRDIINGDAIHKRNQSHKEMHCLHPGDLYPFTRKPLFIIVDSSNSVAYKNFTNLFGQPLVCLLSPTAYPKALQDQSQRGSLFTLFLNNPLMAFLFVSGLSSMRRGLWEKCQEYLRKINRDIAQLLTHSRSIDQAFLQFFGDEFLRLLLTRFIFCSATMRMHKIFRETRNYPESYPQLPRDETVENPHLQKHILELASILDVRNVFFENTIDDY
UniProt Q92503: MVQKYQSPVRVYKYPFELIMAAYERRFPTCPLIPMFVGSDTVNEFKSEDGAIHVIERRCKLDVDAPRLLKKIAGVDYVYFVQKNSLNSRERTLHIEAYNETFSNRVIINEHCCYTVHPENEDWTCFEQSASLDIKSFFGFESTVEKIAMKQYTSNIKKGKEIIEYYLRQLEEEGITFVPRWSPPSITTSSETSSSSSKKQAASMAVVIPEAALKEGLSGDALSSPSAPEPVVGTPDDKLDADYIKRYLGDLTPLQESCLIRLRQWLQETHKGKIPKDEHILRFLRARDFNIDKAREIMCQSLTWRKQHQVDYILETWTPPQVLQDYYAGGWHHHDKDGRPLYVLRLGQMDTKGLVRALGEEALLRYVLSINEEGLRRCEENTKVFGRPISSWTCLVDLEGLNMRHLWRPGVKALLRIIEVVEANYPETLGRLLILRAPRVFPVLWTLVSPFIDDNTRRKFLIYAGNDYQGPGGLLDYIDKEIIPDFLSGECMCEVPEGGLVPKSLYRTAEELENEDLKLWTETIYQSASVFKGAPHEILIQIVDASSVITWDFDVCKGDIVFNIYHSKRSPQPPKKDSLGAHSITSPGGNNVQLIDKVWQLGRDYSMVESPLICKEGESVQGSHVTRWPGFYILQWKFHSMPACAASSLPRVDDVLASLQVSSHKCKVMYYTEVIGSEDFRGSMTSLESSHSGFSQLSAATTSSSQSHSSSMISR
UniProt Q9NTN9: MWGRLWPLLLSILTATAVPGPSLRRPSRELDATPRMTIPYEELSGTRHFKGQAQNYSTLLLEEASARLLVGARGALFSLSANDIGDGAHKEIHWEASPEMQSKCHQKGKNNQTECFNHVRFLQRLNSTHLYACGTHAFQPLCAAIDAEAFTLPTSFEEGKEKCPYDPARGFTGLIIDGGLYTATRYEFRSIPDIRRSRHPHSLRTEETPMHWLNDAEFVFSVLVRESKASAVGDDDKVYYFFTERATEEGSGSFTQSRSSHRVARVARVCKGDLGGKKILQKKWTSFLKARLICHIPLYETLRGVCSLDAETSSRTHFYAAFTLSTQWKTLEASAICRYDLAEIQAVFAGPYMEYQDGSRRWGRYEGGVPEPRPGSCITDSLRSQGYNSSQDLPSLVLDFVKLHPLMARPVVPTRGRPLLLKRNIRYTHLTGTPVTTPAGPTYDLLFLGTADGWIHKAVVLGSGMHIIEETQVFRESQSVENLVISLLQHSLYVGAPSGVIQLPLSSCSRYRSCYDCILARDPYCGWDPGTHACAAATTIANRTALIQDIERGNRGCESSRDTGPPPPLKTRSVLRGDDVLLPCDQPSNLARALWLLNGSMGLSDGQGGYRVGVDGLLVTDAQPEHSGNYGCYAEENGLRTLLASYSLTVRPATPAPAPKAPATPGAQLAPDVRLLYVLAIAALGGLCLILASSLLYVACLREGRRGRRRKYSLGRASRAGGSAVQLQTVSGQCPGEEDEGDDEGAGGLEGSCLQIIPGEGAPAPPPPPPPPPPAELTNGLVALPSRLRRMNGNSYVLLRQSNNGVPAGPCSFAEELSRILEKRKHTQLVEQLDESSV
UniProt P63302, whole entry, looked up: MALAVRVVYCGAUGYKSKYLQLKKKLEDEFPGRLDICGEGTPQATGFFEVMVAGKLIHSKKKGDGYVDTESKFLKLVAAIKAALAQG
UniProt Q9UIL1: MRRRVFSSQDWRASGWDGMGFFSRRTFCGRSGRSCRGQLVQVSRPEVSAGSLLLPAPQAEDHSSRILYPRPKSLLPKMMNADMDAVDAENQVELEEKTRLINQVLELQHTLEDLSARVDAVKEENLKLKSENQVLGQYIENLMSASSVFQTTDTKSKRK
UniProt Q9BWG6: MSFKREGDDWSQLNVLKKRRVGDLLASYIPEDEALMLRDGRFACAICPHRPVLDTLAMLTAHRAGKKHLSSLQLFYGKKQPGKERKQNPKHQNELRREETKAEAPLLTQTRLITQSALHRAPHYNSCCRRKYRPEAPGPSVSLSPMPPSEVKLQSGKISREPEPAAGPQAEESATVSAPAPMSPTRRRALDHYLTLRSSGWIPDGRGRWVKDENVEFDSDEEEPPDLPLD
UniProt Q6SZW1: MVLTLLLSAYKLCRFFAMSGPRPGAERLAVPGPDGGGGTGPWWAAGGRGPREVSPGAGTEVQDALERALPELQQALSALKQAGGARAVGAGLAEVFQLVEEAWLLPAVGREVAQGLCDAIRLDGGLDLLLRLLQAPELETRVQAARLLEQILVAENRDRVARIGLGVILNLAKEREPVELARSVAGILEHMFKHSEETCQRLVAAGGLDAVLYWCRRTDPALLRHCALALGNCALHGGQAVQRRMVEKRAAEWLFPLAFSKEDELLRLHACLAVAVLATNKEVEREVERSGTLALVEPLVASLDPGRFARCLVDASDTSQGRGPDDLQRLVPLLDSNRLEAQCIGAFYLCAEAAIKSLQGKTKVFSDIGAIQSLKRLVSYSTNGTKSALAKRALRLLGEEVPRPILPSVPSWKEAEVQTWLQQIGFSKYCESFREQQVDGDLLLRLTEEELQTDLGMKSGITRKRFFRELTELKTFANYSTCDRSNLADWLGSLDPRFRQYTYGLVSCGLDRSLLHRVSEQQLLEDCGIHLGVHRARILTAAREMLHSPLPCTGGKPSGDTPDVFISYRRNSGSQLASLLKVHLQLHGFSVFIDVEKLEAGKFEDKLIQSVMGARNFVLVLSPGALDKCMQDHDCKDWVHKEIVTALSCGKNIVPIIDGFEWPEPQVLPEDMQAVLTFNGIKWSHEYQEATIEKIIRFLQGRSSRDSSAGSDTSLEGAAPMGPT
UniProt Q9H0E3: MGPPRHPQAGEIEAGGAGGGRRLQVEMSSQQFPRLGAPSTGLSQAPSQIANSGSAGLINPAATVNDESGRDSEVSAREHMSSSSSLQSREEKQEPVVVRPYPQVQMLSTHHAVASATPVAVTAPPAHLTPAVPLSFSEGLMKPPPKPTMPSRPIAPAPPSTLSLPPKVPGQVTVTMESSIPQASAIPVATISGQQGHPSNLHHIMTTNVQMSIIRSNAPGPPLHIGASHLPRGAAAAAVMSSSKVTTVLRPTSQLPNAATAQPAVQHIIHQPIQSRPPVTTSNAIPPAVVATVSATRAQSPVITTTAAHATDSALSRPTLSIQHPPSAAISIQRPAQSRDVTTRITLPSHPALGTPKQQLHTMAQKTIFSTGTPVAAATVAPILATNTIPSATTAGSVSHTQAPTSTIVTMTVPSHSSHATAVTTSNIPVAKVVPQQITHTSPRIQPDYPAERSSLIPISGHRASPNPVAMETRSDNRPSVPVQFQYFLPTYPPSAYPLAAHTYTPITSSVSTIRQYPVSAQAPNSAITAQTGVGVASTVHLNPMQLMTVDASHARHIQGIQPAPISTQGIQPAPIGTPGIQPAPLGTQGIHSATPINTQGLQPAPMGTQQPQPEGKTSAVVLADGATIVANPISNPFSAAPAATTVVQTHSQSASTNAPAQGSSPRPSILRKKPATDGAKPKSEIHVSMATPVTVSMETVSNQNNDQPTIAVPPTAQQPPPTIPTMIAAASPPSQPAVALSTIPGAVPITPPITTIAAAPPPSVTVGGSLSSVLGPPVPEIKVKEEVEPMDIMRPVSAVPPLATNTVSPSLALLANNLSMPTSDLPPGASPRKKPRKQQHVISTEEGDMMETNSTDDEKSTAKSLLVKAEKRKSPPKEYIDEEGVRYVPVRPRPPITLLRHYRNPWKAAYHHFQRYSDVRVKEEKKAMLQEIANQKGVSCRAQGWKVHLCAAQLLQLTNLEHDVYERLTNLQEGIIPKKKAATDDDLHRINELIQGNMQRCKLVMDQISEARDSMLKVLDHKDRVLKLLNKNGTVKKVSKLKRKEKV
UniProt O75556: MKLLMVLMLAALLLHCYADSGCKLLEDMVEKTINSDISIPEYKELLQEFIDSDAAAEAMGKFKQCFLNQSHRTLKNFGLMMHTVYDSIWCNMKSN
UniProt Q8WXD2: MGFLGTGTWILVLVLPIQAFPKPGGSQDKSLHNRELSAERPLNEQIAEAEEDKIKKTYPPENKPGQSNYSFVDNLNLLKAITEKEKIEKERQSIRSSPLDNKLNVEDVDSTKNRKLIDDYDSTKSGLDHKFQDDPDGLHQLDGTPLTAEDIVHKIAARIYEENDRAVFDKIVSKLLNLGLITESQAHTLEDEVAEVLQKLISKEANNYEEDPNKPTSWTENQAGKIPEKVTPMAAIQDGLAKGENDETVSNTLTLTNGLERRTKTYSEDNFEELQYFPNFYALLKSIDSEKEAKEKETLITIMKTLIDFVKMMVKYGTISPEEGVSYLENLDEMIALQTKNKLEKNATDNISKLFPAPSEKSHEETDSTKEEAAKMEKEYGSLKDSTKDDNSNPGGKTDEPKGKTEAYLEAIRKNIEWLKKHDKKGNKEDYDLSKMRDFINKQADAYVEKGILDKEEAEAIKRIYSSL

Some of the results follow.

Common to all, as to experiment: log2 fold change, soluble protein after heating vs DMSO (PISA); higher = thermal stabilisation; K562 lysate, 10 uM; active = over 0.2 and 3.5 SD of the protein, either way, in both replicates (recomputed)
Compound in assay [1]: CC1=C2C(=CC=C1)N=C(N(C2=O)C3=CC=CC=C3C)CN4C=NC5=C(N=CN=C54)N
In outline:
(§1)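 Pellets of K562 cells were dounce-homogenised in PBS pH 7.4 with 1 mM MgCl2, and the crude extract was held at 1 mg/mL protein for a 30 min treatment with 10 μM compound. Aliquots were heated for 3 min over 48°C-58°C and pooled before NP-40 was added to 0.5% at 4°C. The supernatant from 21,000xg for 90 min was quantified by TMTpro 16plex LC-MS/MS with channel sums equalised. Values are reported from duplicates as log-two fold change in thermal stability relative to solvent controls.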

Compound in assay [2]: Cc1sc2c(c1C)C(c1ccc(Cl)cc1)=N[C@@H](CC(=O)OC(C)(C)C)c1nnc(C)n1-2
The gist of the method:
as §1

Compound in assay [3]: c1ccc([C@@H]2C[C@H]2NC2CCNCC2)cc1
The gist of the method:
as §1

Compound in assay [4]: C1=CC=C(C=C1)[C@H](COC2=CC3=C(C=C2)NC(=O)N3)NC(=O)C4=CC=CN(C4=O)CC5=CC(=C(C=C5)F)F
In outline: as §1

Compound in assay [5]: CC1=C(SC2=C1C(=N[C@H](C3=NN=C(N32)C)CC(=O)N)C4=CC=C(C=C4)Cl)C
The gist of the method:
as §1

SATB2 (UniProt Q9UPW6): the log2 fold change was inactive: -0.019 in assay [1], inactive: 0.021 in assay [2] and inactive: -0.045 in assay [3].
Turning to SALL2 (UniProt Q9Y467), the log2 fold change in assay [4] was inactive: -0.042; in assay [5] it was inactive: 0.036; in assay [2], inactive: 0.098; in assay [3], inactive: -0.168.
For the target SELENOI (UniProt Q9C0D9), the log2 fold change is inactive: -0.044 in assay [4], inactive: -0.188 in assay [5] and inactive: -0.191 in assay [2].
As to SDHD (UniProt O14521), the log2 fold change in assay [1] was inactive: 0.17; in assay [2] it was inactive: -0.017; in assay [3], inactive: 0.1.
For SDC3 (UniProt O75056), the log2 fold change in assay [2] is inactive: -0.205.
Regarding SAGE1 (UniProt Q9NXZ1), the log2 fold change in assay [2] is inactive: 0.03; in assay [3], inactive: -0.002.
With SBSN (UniProt Q6UWP8), the log2 fold change in assay [3] was inactive: -0.001.
Turning to SCGB1D2 (UniProt O95969), the log2 fold change in assay [4] was inactive: -0.369; in assay [5], inactive: -0.163; in assay [2], inactive: -0.015; in assay [3] it was inactive: 0.104.
In the case of SENP3 (UniProt Q9H4L4), the log2 fold change in assay [1] was inactive: -0.101; in assay [2] it was inactive: 0.134; in assay [3] it was inactive: 0.09.
Take SDCBP isoform 2 (UniProt O00560): the log2 fold change is inactive: -0.056 in assay [4], inactive: 0.027 in assay [5], inactive: 0.058 in assay [2] and inactive: -0.063 in assay [3].
Consider SAMD1 (UniProt Q6SPF0), for which the log2 fold change in assay [2] was inactive: -0.052; in assay [3], inactive: 0.108.
Take SDHB, A0A087WWT1: the log2 fold change in assay [1] is inactive: 0.065; in assay [2] it was inactive: -0.122; in assay [3], inactive: 0.099.
Turning to SCAI isoform 2 (UniProt Q8N9R8), the log2 fold change in assay [4] is inactive: -0.271; in assay [5], inactive: -0.104; in assay [1], inactive: -0.055; in assay [3], inactive: 0.183.
With SDHB, A0A087WXX8, the log2 fold change is inactive: 0.169 in assay [1] and inactive: -0.096 in assay [3].
As to SALL1 (UniProt Q9NSC2), the log2 fold change in assay [3] is inactive: 0.299.
Regarding SEC14L1 isoform 2 (UniProt Q92503), in assay [1], the log2 fold change is inactive: 0.069.
SEMA4G isoform 2 (UniProt Q9NTN9): the log2 fold change in assay [1] is inactive: 0.105; in assay [2] it was inactive: 0.021; in assay [3], inactive: 0.066.
SELENOW (UniProt P63302): in assay [3], the log2 fold change is inactive: 0.075.
As for SDR39U1 (UniProt Q9NRG7), the log2 fold change was inactive: 0.599 in assay [4], inactive: -0.238 in assay [5] and inactive: -0.141 in assay [3].
For the target SBNO2 (UniProt Q9Y2G9), the log2 fold change is inactive: 0.082 in assay [1] and inactive: 0.113 in assay [3].
Regarding SELENON (UniProt Q9NZV5), in assay [2], the log2 fold change is inactive: 0.274.
Consider SEC31A (UniProt H0YAB3), for which the log2 fold change in assay [4] is inactive: -0.046; in assay [5] it was inactive: -0.015; in assay [2], inactive: 0.01; in assay [3], inactive: -0.004.
Turning to SASH1 (UniProt O94885), the log2 fold change in assay [4] is inactive: -0.006; in assay [5], inactive: 0.095; in assay [2], inactive: -0.024; in assay [3] it was inactive: 0.012.
Regarding SCOC (UniProt Q9UIL1), the log2 fold change in assay [2] was inactive: 0.015.
With SCNM1 (UniProt Q9BWG6), the log2 fold change is inactive: -0.332 in assay [2] and inactive: 0.014 in assay [3].
Take SARM1 (UniProt Q6SZW1): the log2 fold change in assay [3] was inactive: 0.272.
On the same count and under the same terms, under SC5D (UniProt O75845) stands inactive: -0.043.
On to SAP130 isoform 3 (UniProt Q9H0E3), for which the log2 fold change is inactive: -0.054 in assay [1], inactive: -0.125 in assay [2] and inactive: 0.074 in assay [3].
Regarding SCARB2 isoform 2 (UniProt Q14108), the log2 fold change in assay [4] was inactive: 0.007; in assay [5], inactive: 0.058; in assay [2], inactive: -0.044; in assay [3] it was inactive: -0.016.
With SCGB2A1 (UniProt O75556), the log2 fold change in assay [3] is inactive: -0.043.
With SEPTIN8 (UniProt F8W8I8), the log2 fold change in assay [2] is inactive: -0.019; in assay [3], inactive: -0.26.
In the case of SAMD9 (UniProt Q5K651), the log2 fold change in assay [3] was inactive: 0.077.
In the case of SCG3 (UniProt Q8WXD2), the values for the log2 fold change in assay [1], in assay [2] and in assay [3] were inactive: -0.023, inactive: 0.002 and inactive: -0.023, respectively.
For the target SELENOO (UniProt Q9BVL4), the log2 fold change in assay [2] was inactive: -0.077; in assay [3], inactive: -0.067.
On the same counts, the results for SENP7 (UniProt Q9BQF6) are inactive: 0.232 and inactive: -0.036.
Consider SELENOT (UniProt P62341), for which the log2 fold change is inactive: -0.254 in assay [4], inactive: 0.134 in assay [5], inactive: -0.232 in assay [2] and inactive: 0.181 in assay [3].
Regarding SEC16A isoform 3 (UniProt O15027), the log2 fold change in assay [2] was inactive: -0.006.
